Patent US11007270B2, “Polymer-semaxanib moiety conjugates” (Nektar Therapeutics, priority 2010, dated 2021)

Sequences of proteins named here, by UniProt entry; tags and fusion partners are left off. Residues count along the entry.
UniProt P35968, 20-1356 limits assumed: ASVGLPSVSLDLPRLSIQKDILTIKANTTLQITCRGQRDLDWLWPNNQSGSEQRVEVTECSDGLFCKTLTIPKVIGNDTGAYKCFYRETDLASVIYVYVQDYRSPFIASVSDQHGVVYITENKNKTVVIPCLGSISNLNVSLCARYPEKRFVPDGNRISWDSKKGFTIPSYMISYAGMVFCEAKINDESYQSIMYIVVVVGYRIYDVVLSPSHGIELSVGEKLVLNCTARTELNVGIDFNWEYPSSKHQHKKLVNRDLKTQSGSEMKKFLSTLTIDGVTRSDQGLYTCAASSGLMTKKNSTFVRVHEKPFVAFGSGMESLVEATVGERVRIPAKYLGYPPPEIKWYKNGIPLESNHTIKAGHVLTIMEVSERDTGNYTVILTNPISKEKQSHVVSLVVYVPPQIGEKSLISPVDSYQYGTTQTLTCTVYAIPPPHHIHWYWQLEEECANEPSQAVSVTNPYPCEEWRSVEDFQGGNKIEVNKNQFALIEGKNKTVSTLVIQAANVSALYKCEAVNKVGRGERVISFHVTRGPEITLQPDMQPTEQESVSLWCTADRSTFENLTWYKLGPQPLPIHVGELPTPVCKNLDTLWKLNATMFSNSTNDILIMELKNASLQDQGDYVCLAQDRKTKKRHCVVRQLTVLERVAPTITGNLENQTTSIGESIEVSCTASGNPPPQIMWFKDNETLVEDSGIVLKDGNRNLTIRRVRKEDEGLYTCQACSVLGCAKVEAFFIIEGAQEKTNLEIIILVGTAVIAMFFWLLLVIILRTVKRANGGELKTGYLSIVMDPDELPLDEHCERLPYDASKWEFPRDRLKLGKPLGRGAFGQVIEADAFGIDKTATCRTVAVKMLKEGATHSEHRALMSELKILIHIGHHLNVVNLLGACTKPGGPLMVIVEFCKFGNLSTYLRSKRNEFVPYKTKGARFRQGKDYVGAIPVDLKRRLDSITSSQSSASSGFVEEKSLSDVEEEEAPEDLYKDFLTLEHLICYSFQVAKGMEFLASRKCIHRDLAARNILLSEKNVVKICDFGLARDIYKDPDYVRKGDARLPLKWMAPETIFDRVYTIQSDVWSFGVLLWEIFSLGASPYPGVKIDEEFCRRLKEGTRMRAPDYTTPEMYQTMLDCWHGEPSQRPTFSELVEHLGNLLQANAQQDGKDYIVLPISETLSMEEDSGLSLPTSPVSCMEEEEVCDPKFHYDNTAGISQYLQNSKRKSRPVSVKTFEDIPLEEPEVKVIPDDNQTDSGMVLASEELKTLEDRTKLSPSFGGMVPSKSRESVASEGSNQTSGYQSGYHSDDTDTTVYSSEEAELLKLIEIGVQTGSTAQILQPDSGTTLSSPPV

Molecular target: VEGFR-2 (Homo sapiens, UniProt P35968)
Experiment: VEGFR-2 kinase inhibition, Caliper screening (fluorescent substrate phosphorylation, electrophoretic separation)
Conditions: read-out: VEGFR-2 IC50

COCCOCCOCCOCCOCCOCCNC(=O)c1c(C)[nH]c(/C=C2\C(=O)Nc3ccc(F)cc32)c1C [mPEG6-semaxanib, (Z)-5-((5-fluoro-2-oxoindolin-3-ylidene)methyl)-2,4-dimethyl-1H-pyrrole-3-mPEG6-amide]
IC50: 230 nM and 520 nM

The source holds more than one record for some entries. This is not the full list of results. The source may hold further records. The records of an entry differ, and nothing given here explains why; some may be repeats, others may stem from another dose, organism or construct than stated.
